# According to PubChem BioAssay AID2685 (National Center for Advancing Translational Sciences (NCATS), 2010):
# The other results are listed elsewhere or left out. Shown are side measurements of this screen, not its main read-out; they come without a call. The list favours compounds with an active or inconclusive main result. Words in brackets tell the shape of the fitted curve; partial curves, single points and poor fits give uncertain potencies.
# Assay: qHTS Assay for Lipid Storage Modulators in Drosophila S3 Cells;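 as to cell number change: cells counted by Cell Tracker Red CMTPX staining in the red channel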
# Conditions: BODIPY lipid droplet fluorescence, 18-24 h; for cell number change: measured here: cell count max response, cells fed with added oleic acid
# How it was run: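 Drosophila S3 cells loaded with oleic acid (400 uM, as added) and compounds at several concentrations; lipid droplets imaged by 488-nm laser-scanning cytometry, 500–530 nm intensity and object ratio to cell channel. Percent activity normalized to 20 uM Triacsin C.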
# [1] = measured here: lipid fluorescence (Fed channel) AC50, cells fed with added oleic acid
# [2] = measured here: cell number channel AC50, cells fed with added oleic acid
SMILES,cell number change,AC50 [1],AC50 [2]
COc1ccc(-c2nc3c(-c4ccc(F)cc4)cnn3cc2C)cc1F,9.3%,"2.31 µM [rising, partial curve]",
O=C(CSc1nc2ccccc2c(=O)n1Cc1ccco1)c1ccc(F)cc1,-18.6%,"32.6 µM [falling, single point]",
Cc1nc(-c2ccc(S(=O)(=O)N3CCN(c4cccc(C)c4C)CC3)cc2)co1,97.7%,"7.31 µM [rising, partial curve, poor fit]","11.6 µM [rising, partial curve, poor fit]"
CCC(=O)N1CCc2cc(Br)cc(S(=O)(=O)NCc3ccccc3OC)c21,7.21%,"6.51 µM [rising, single point]",
COCc1c(C(=O)OCC(=O)c2c(N)n(CC(C)C)c(=O)n(C)c2=O)oc2ccccc12,-25.6%,"25.9 µM [falling, single point]",
CCn1nc(NS(=O)(=O)c2ccc([N+](=O)[O-])cc2)c2cc3ccc(C)cc3nc21,-14.1%,,
COc1ccccc1-c1nc(SCc2ccccn2)n[nH]1,77.7%,"4.11 µM [rising, single point]","11.6 µM [rising, partial curve]"
S=c1[nH]cc(-c2ccc(Cl)cc2)n1-c1ccccc1,4.1%,"4.61 µM [rising, full curve, poor fit]",
CCN(C(=O)C1CCCN1S(=O)(=O)c1ccc2c(c1)n(C)c(=O)c(=O)n2C)c1ccccc1 (configuration not stated),14.1%,,
COc1ccc(C)cc1NC(=O)CSc1nnc(COc2ccccc2)n1Cc1ccco1,-27.3%,,
Cc1ccc(O)c(CNc2cccc(C)n2)c1,-1.05%,"6.51 µM [rising, single point]",
O=C(O)c1ccc(/C=N/NC(=S)NCCN2CCOCC2)cc1,,"6.51 µM [falling, single point]","6.51 µM [falling, single point]"
CCc1ccccc1OCC(=O)N1CCN(c2ncccn2)CC1,-2.01%,,"0.291 µM [rising, partial curve, poor fit]"
CCOC(=O)c1c(NC(=O)c2c(Br)cnn2CC)sc(C)c1C,18.5%,"2.06 µM [rising, full curve, poor fit]",
CC(C)c1nnc(NC(=O)CC23CC4CC(CC(C4)C2)C3)s1,14.4%,"29.1 µM [rising, single point]","0.058 µM [rising, full curve, poor fit]"
O=C(c1cccc(Br)c1)c1coc2ccc(O)cc12,-53.5%,"32.6 µM [falling, partial curve]","18.4 µM [falling, single point]"
Cc1ccc(NC(=O)c2ocnc2C)cc1Cl,-18.8%,,
Cc1coc(NC(=O)CSc2nc(-c3ccc(Cl)cc3)cc(C(F)(F)F)c2C#N)n1,44.2%,"0.116 µM [rising, full curve, poor fit]","0.291 µM [rising, full curve]"
Cc1ccc(CNC(=O)CCS(=O)(=O)c2ccc(Br)s2)o1,-126%,,"1.64 µM [falling, partial curve]"
CCCN1C(=O)C2(OCCO2)c2cc(Cl)ccc21,16.8%,,

SMILES,cell number change,AC50 [1],AC50 [2]
Cc1ccc(Cl)cc1N1CCN(CC(=O)NC2CCCc3ccccc32)CC1 (configuration not stated),-45.3%,"16.4 µM [falling, single point]","20.6 µM [falling, single point]"
CCCCN1CCNC[C@@H]1Cc1ccccc1,32.9%,,"23.1 µM [rising, single point]"
Cc1ccc(NC(=O)NCC2CC2(Cl)Cl)cc1 (configuration not stated),,"29.1 µM [rising, single point]",
Cc1nnc(SC(C)C(=O)Nc2ccc3ccccc3c2)n1C (configuration not stated),14.8%,"4.11 µM [rising, single point]",
Nc1c(Cl)cc(Cl)cc1C(=O)OCC(=O)N1CCCC1=O,9.64%,,
COc1ccc(Cn2nc(-c3ccccc3)c(N3CCCCC3)cc2=O)cc1,17.7%,"9.2 µM [rising, partial curve, poor fit]",
Cc1cccc(CS(=O)(=O)Cc2ccc(C(=O)NCc3cccnc3)o2)c1,,,"6.51 µM [rising, single point]"
Clc1ccc(CN(Cc2ccc(Cl)cc2)c2nn[nH]n2)cc1,,,"0.82 µM [rising, full curve, poor fit]"
COc1cccc(CC2CC(=O)N(CCc3ccc4c(c3)OCO4)C2=O)c1 (configuration not stated),,"29.1 µM [rising, single point]","0.184 µM [rising, full curve, poor fit]"
Cc1ccc(C(=O)NCCNc2ncc(C(F)(F)F)cc2Cl)cc1[N+](=O)[O-],18.5%,"0.231 µM [rising, full curve, poor fit]","0.731 µM [rising, full curve, poor fit]"
COc1cc([N+](=O)[O-])ccc1NC(=O)CSc1ccccn1,,"6.51 µM [rising, single point]",
COc1ccc(C(CNC(=O)COc2ccccc2C)N2CCOCC2)cc1 (configuration not stated),154%,,"7.31 µM [rising, partial curve]"
COc1ccc(CNC(=O)c2ccc(NC(=O)CC3SC(N4CCCCC4)=NC3=O)cc2)cc1 (configuration not stated),,"0.13 µM [falling, full curve, poor fit]",
O=S(=O)(c1cccc(-c2n[nH]c(=S)o2)c1)N1CCOCC1,-34.5%,"29.1 µM [falling, single point]","23.1 µM [falling, single point]"
CCn1c(-c2nn(-c3ccc(C)cc3)ccc2=O)n[nH]c1=S,33.8%,,"3.16 µM [rising, partial curve, poor fit]"
CCOc1cc(CNCCc2ccc(S(N)(=O)=O)cc2)cc(Cl)c1OCc1ccccc1,-30.5%,,"29.1 µM [falling, single point]"
Cc1ccc(N2CCN(S(=O)(=O)c3ccc(C)cc3)CC2)cc1,33.7%,,"7.31 µM [rising, partial curve]"
Cc1ccc(C(=O)Nc2ccc3c(c2)C(=O)N(CC2CCCO2)C3=O)cc1 (configuration not stated),-18.5%,,
O=C(COC(=O)CNC(=O)c1ccccc1)Nc1nc(-c2ccccc2)cs1,17.1%,"13 µM [rising, partial curve, poor fit]",
CCN(CC)S(=O)(=O)c1ccc(OC)c(NC(=O)CC2CCCC2)c1,-19%,"29.1 µM [falling, single point]",

SMILES,cell number change,AC50 [1],AC50 [2]
CC(C)c1nc(NCC2CCCO2)c(C#N)c2c1COC(C)(C)C2 (configuration not stated),-38.2%,"32.6 µM [falling, single point]","23.1 µM [falling, partial curve]"
CC(C)c1ccccc1NC(=O)CNC(C)c1ccc(F)cc1 (configuration not stated),,"0.517 µM [rising, partial curve]","0.411 µM [rising, partial curve]"
S=c1[nH]nc(-c2ccccc2Cl)n1CC1CCCO1 (configuration not stated),-13.8%,,
COc1cc(/C=C/C(=O)OCC(=O)N2c3ccccc3CC2C)cc(OC)c1OC (configuration not stated),-14.4%,"0.103 µM [rising, full curve, poor fit]",
Cc1noc(C)c1S(=O)(=O)N1CCC2(CC1)OCCO2,,"6.51 µM [falling, single point]",
c1ccc(-n2ncc3c(NCC4CCCO4)ncnc32)cc1 (configuration not stated),-0.995%,"0.0058 µM [falling, full curve, poor fit]",
Cc1noc(/C=C/c2cccs2)c1S(=O)(=O)N1CCC(C(=O)NCCCN2CCCC(C)C2)CC1 (configuration not stated),-16.2%,"0.13 µM [falling, full curve, poor fit]","0.206 µM [falling, full curve]"
CC(=O)c1ccc(N2Cc3ccccc3C3(CCOCC3)C2=N)cc1,98.7%,,
O=C1NCCN1C(=O)N(c1ccccc1)c1ccccc1,-18.6%,"5.8 µM [falling, partial curve]",
Cc1ccccc1OCC(=O)NC1CCCCCCC1,-20%,,
CC1C(=O)Nc2ccc(S(=O)(=O)N3CCN(c4cccc(Cl)c4)CC3)cc2NC1=O (configuration not stated),4.03%,,
C=CCN1C(c2cccc(C(F)(F)F)c2)=CS/C1=C(/C#N)c1nnc(N2CCOCC2)n1-c1ccccc1,18.7%,"2.59 µM [rising, partial curve, poor fit]",
Cc1cccc(Oc2cc(N)cc([N+](=O)[O-])c2)c1,-34%,"29.1 µM [falling, single point]","7.31 µM [falling, partial curve, poor fit]"
COC(=O)c1cccc(NC(=O)c2ccc[n+]([O-])c2)c1,-8.76%,,
Nn1c(SCC(=O)N2CCCCCC2)nnc1-c1ccncc1,,"3.26 µM [falling, partial curve]",
Cc1cccc(NC(=O)CCCN2C(=S)NC(C)(C)CC2C)c1C (configuration not stated),-0.88%,,"0.651 µM [falling, single point]"
CC(C)[C@H](NC(=O)N1CC(=O)Nc2ccccc21)C(=O)N1CCC(C(=O)O)CC1,,"0.164 µM [rising, single point]",
Cc1ccc(S(=O)(=O)Oc2ccc(/C=C(/NC(=O)c3ccccc3)C(=O)Nc3ccccc3)cc2)cc1,6.13%,,"0.00461 µM [falling, full curve, poor fit]"
CCOC(=O)C1=C(CNC(C)(C)CC(C)(C)C)NC(=O)NC1c1cccc([N+](=O)[O-])c1 (configuration not stated),6.37%,"29.1 µM [falling, single point]",
Nc1cc(=O)[nH]c(SCC(=O)Nc2ccc(Br)cc2)n1,7.37%,"20.6 µM [falling, partial curve]","1.64 µM [falling, partial curve]"

# Record cards (already shown).
# `Cc1cccc(Oc2cc(N)cc([N+](=O)[O-])c2)c1` as listed: cell number change: -34%; AC50 [1]: 29.1 µM [falling, single point]; AC50 [2]: 7.31 µM [falling, partial curve, poor fit]
# `C=CCN1C(c2cccc(C(F)(F)F)c2)=CS/C1=C(/C#N)c1nnc(N2CCOCC2)n1-c1ccccc1` as listed: cell number change: 18.7%; AC50 [1]: 2.59 µM [rising, partial curve, poor fit]
# `Cc1ccccc1OCC(=O)NC1CCCCCCC1` as listed: cell number change: -20%
